Measured values as given in the supplement of paper PMC10849652.
Some of the results follow.

Sequences of proteins named here, by UniProt entry; tags and fusion partners are left off. A change or cut given only in a name is not applied to a line headed by its entry.
UniProt Q16763: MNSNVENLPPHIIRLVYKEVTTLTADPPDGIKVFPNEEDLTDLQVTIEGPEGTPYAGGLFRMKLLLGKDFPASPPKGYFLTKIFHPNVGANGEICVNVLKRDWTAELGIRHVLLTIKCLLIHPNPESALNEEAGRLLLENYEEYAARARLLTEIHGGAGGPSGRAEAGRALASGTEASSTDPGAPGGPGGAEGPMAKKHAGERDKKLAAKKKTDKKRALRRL
UniProt P63146, whole entry, looked up: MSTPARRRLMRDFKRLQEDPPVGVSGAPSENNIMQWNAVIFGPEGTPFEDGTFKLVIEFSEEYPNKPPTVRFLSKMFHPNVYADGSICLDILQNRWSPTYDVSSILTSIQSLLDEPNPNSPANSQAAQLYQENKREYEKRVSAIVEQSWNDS
UniProt Q9BSL1: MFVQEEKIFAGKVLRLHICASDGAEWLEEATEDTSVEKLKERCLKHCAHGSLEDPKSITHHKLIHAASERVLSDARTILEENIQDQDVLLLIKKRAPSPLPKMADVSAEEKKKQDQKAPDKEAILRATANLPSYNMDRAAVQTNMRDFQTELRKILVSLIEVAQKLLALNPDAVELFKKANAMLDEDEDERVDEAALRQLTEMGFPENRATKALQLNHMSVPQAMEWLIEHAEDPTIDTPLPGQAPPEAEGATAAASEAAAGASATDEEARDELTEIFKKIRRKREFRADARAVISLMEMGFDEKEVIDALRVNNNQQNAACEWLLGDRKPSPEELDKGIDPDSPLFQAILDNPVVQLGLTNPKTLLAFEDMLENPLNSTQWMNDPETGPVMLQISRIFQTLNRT
UniProt O14933: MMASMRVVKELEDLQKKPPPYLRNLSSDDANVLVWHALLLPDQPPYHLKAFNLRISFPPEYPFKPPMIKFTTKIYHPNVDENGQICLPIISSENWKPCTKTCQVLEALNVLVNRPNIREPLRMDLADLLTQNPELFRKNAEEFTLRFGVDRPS
UniProt Q9BZV1: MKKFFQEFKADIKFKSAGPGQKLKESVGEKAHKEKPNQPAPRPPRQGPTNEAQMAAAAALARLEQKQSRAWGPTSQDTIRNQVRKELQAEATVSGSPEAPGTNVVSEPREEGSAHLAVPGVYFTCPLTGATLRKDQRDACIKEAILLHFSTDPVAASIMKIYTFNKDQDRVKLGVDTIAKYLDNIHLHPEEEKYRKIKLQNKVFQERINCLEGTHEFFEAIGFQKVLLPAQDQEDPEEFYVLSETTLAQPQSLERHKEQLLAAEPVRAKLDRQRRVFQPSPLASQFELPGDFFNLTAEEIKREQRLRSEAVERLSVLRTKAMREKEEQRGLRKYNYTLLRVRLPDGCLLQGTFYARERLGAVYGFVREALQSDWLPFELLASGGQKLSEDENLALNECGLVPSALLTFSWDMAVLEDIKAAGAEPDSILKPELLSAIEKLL
UniProt O15042: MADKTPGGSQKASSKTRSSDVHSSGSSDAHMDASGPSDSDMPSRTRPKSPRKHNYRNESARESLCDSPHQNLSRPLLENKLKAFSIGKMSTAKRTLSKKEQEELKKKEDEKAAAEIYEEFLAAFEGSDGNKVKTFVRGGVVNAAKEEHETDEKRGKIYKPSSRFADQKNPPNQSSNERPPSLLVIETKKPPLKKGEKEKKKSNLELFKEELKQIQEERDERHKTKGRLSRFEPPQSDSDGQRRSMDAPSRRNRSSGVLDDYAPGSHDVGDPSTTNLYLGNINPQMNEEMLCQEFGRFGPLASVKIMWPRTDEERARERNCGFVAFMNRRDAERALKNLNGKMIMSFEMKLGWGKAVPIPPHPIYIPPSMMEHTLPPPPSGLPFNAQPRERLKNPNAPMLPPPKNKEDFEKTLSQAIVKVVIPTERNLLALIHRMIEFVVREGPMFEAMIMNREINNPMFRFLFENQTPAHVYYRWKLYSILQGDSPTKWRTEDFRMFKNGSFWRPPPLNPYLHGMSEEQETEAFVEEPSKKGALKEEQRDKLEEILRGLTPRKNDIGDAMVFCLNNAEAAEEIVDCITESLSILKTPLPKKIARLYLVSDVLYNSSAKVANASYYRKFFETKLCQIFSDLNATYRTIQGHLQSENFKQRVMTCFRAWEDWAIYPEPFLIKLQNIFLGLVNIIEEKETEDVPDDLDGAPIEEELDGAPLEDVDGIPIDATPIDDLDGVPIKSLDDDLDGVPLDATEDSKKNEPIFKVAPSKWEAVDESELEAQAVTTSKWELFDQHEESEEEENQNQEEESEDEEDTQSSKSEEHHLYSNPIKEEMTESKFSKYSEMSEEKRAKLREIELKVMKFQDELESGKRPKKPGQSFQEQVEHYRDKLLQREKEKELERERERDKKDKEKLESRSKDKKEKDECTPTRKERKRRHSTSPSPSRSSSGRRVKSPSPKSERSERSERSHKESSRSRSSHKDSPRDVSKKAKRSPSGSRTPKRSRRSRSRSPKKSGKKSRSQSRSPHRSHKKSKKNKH
UniProt Q969M7: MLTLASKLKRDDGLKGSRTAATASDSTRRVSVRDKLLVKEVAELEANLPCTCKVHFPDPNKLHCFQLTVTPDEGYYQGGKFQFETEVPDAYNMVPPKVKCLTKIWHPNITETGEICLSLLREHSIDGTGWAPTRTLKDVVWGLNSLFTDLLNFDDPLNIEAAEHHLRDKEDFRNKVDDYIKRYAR
UniProt Q9UGJ1, whole entry, looked up: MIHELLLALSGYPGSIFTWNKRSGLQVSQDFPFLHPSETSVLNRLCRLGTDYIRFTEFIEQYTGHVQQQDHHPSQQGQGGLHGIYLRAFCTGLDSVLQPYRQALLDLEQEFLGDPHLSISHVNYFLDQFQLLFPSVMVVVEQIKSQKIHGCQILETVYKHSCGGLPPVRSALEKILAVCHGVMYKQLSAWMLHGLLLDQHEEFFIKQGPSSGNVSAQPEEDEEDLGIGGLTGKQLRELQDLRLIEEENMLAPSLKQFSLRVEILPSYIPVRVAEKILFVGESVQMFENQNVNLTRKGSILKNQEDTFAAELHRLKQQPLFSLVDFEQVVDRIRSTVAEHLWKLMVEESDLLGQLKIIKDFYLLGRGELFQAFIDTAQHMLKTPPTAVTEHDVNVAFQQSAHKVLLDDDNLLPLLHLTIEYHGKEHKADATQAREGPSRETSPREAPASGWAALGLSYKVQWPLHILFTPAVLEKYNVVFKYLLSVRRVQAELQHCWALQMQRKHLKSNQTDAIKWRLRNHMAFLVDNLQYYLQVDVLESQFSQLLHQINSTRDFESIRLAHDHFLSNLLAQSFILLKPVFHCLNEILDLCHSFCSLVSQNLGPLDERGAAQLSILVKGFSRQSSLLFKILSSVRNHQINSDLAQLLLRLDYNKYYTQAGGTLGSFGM
UniProt Q9H4B7, whole entry, looked up: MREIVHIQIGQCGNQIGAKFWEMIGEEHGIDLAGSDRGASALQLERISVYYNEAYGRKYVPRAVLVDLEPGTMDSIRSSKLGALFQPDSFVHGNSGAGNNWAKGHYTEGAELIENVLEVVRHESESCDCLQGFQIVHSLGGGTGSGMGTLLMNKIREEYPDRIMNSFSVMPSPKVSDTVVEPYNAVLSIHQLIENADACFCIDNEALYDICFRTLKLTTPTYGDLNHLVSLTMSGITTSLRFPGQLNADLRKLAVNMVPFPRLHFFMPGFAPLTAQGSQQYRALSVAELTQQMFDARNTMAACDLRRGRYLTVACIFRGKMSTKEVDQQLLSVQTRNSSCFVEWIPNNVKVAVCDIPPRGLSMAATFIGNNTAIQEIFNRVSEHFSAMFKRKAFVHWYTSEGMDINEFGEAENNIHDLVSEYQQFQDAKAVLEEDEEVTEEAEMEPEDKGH
UniProt P61086: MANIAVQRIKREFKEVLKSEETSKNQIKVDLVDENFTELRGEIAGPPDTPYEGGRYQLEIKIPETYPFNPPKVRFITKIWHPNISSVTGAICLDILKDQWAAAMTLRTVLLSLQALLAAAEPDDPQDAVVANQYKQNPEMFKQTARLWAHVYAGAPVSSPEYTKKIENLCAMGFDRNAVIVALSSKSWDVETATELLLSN
UniProt Q13509, whole entry, looked up: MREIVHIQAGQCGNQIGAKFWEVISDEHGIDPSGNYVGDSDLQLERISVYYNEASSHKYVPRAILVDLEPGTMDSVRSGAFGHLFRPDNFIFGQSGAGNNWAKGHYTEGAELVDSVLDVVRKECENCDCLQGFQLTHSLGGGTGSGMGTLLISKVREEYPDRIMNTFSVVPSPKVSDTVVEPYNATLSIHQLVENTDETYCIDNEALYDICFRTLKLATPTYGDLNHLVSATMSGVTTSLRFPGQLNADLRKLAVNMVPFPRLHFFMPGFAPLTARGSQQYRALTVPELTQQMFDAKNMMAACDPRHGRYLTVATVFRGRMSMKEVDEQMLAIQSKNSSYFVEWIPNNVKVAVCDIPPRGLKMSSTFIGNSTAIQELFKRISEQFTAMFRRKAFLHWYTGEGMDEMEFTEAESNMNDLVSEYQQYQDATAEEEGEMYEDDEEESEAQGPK
UniProt A6NNZ2, whole entry, looked up: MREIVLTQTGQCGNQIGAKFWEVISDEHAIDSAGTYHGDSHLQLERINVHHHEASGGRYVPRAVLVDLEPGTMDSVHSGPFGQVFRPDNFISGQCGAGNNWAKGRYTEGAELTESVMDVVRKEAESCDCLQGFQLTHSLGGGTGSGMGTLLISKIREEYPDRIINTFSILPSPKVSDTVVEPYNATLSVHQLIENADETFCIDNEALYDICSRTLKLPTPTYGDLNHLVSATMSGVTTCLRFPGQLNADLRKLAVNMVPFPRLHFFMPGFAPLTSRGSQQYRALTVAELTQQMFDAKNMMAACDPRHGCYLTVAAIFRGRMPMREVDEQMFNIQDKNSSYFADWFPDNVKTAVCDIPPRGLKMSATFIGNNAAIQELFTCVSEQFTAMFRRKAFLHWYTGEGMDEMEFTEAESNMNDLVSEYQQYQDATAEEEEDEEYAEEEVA
UniProt Q99757: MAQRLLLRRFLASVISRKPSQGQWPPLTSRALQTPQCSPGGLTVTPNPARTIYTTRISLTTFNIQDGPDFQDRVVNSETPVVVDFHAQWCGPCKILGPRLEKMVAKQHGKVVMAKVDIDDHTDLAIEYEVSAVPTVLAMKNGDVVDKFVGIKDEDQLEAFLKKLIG
UniProt Q9P2K2: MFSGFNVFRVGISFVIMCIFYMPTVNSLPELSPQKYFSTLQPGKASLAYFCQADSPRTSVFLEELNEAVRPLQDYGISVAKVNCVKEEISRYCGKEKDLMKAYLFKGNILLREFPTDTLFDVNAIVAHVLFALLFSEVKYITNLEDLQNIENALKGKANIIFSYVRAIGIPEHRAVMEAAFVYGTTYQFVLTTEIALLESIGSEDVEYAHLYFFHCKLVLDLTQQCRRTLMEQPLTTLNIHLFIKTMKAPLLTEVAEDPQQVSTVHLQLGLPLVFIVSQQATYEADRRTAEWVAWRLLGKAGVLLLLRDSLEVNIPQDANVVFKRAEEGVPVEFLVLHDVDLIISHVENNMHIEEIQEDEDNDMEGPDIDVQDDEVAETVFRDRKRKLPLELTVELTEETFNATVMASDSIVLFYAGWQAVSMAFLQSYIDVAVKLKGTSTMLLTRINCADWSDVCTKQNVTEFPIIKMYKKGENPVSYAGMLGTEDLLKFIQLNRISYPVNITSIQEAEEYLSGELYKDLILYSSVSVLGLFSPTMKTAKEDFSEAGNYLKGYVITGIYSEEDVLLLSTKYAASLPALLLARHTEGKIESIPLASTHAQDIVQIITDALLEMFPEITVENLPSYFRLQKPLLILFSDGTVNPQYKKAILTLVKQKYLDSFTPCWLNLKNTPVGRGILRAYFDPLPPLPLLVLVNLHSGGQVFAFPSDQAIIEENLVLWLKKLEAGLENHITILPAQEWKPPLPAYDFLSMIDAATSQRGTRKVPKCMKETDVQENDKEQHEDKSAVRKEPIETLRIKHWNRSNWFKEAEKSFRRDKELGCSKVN
UniProt Q9BVA1, whole entry, looked up: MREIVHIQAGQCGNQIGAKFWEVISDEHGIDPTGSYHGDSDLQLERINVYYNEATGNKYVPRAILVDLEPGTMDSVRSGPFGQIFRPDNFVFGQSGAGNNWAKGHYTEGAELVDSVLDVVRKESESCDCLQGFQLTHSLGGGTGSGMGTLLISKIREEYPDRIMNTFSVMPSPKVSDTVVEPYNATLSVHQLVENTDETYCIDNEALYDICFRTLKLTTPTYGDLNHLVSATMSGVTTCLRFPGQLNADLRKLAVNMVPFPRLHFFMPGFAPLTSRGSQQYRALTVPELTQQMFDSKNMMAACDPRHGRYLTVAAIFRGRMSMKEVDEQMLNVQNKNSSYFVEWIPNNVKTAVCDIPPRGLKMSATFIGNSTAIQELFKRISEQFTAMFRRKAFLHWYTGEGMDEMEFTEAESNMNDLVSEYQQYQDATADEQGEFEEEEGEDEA

What was measured:
Test in all cases: log2 fold change, soluble protein after heating vs DMSO (PISA); higher = thermal stabilisation; K562 lysate, 10 uM; active = over 0.2 and 3.5 SD of the protein, either way, in both replicates (recomputed)
lapatinib = compound: CS(=O)(=O)CCNCc1ccc(-c2ccc3ncnc(Nc4ccc(OCc5cccc(F)c5)c(Cl)c4)c3c2)o1 [lapatinib]
Outline: (§1)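 Quantification was by TMTpro 16plex LC-MS/MS with equalised channel sums, applied to the supernatant after 21,000xg for 90 min. Samples were crude K562 extract at 1 mg/mL protein in PBS pH 7.4 with 1 mM MgCl2, treated with 10 μM compound for 30 min, heated for 3 min across 48°C-58°C, pooled and brought to 0.5% NP-40 at 4°C. Values are log-two fold changes in thermal stability relative to solvent controls, from duplicates.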

pictilisib = compound: CS(=O)(=O)N1CCN(Cc2cc3nc(-c4cccc5[nH]ncc45)nc(N4CCOCC4)c3s2)CC1 [pictilisib]
Outline: as §1

crizotinib = compound: C[C@@H](Oc1cc(-c2cnn(C3CCNCC3)c2)cnc1N)c1c(Cl)ccc(F)c1Cl [crizotinib]
Outline: as §1

[1] = compound: C[C@H](C1=CC=C(C=C1)C(=O)NC2=C3C=CNC3=NC=C2)N
Outline: as §1

duvelisib = compound: C[C@H](Nc1ncnc2nc[nH]c12)c1cc2cccc(Cl)c2c(=O)n1-c1ccccc1 [duvelisib]
Outline: as §1

gandotinib = compound: Cc1cc(Nc2cc(CN3CCOCC3)c3nc(C)c(Cc4ccc(Cl)cc4F)n3n2)n[nH]1 [gandotinib]
Outline: as §1

tozasertib = compound: Cc1cc(Nc2cc(N3CCN(C)CC3)nc(Sc3ccc(NC(=O)C4CC4)cc3)n2)n[nH]1 [tozasertib]
Outline: as §1

doramapimod = compound: Cc1ccc(-n2nc(C(C)(C)C)cc2NC(=O)Nc2ccc(OCCN3CCOCC3)c3ccccc23)cc1 [doramapimod]
Outline: as §1

bafetinib = compound: Cc1ccc(NC(=O)c2ccc(CN3CC[C@H](N(C)C)C3)c(C(F)(F)F)c2)cc1Nc1nccc(-c2cncnc2)n1 [bafetinib]
Outline: as §1

[2] = compound: Cc1cccc(CC(=O)N2CCc3c2ccc(-c2cn(C)c4ncnc(N)c24)c3F)n1
Outline: as §1

nilotinib = compound: Cc1cn(-c2cc(NC(=O)c3ccc(C)c(Nc4nccc(-c5cccnc5)n4)c3)cc(C(F)(F)F)c2)cn1 [nilotinib]
Outline: as §1

[3] = compound: Cc1nc(Nc2n[nH]c3c2CN(C(=O)N[C@H](CN(C)C)c2ccccc2)C3(C)C)c2sccc2n1
Outline: as §1

dasatinib = compound: Cc1nc(Nc2ncc(C(=O)Nc3c(C)cccc3Cl)s2)cc(N2CCN(CCO)CC2)n1 [dasatinib]
Outline: as §1

[4] = compound: Cc1ncc(-c2ccnc(Nc3ccc(S(C)(=O)=O)cc3)n2)n1C(C)C
Outline: as §1

[5] = compound: Cn1cc(-c2ccc3c(c2)CCN3C(=O)Cc2cccc(C(F)(F)F)c2)c2c(N)ncnc21
Outline: as §1

quisinostat = compound: Cn1cc(CNCC2CCN(c3ncc(C(=O)NO)cn3)CC2)c2ccccc21 [quisinostat]
Outline: as §1

tipifarnib = compound: Cn1cncc1[C@@](N)(c1ccc(Cl)cc1)c1ccc2c(c1)c(-c1cccc(Cl)c1)cc(=O)n2C [tipifarnib]
Outline: as §1

[6] = compound: NC(=O)Nc1cc(-c2cccc(F)c2)sc1C(=O)N[C@H]1CCCNC1
Outline: as §1

[7] = compound: NC(=O)c1cnc(N[C@@H]2CCCC[C@@H]2N)nc1Nc1cccc(-n2nccn2)c1
Outline: as §1

[8] = compound: NC1(c2ccc(-c3nc4ccn5c(=O)[nH]nc5c4cc3-c3ccccc3)cc2)CCC1
Outline: as §1

Measured: log2 fold change

UBE2S (UniProt Q16763)
inactive: lapatinib 0.022 | pictilisib -0.012 | crizotinib 0.021 | [1] -0.037 | duvelisib -0.015 | gandotinib 0.023 | tozasertib 0.069 | doramapimod -0.012 | bafetinib -0.016 | [2] 0.015 | nilotinib 0.028 | [3] 0.015 | dasatinib 0.015 | [4] -0.03 | [5] -0.042 | quisinostat -0.022 | tipifarnib -0.01 | [6] 0.008 | [7] 0.049 | [8] -0.01

UBE2B (UniProt P63146)
inactive: lapatinib -0.008 | pictilisib -0.031 | crizotinib 0.024 | [1] 0.028 | duvelisib -0.033 | gandotinib 0.009 | tozasertib -0.005 | doramapimod -0.011 | bafetinib -0.013 | [2] -0.025 | nilotinib 0.002 | [3] 0.001 | dasatinib 0.02 | [4] -0.024 | [5] -0.073 | quisinostat 0.004 | tipifarnib 0.038 | [6] 0.055 | [7] -0.014 | [8] -0.001

UBAC1 (UniProt Q9BSL1)
inactive: lapatinib 0.002 | pictilisib 0.016 | crizotinib 0.004 | [1] 0.087 | duvelisib 0.017 | gandotinib -0.011 | tozasertib 0.037 | doramapimod 0.014 | bafetinib 0.028 | [2] -0.039 | nilotinib 0.003 | [3] 0.011 | dasatinib -0.013 | [4] -0.019 | [5] 0.018 | quisinostat -0.028 | tipifarnib 0 | [6] -0.01 | [7] 0.021 | [8] -0.021

TXNRD2 (UniProt Q9NNW7)
inactive: lapatinib 0 | pictilisib -0.017 | crizotinib 0.003 | [1] -0.046 | duvelisib 0.084 | gandotinib 0.059 | tozasertib -0.042 | doramapimod -0.066 | bafetinib 0.041 | [2] 0.034 | nilotinib 0.063 | [3] 0.008 | dasatinib 0.039 | [4] 0.071 | [5] 0.015 | quisinostat -0.017 | tipifarnib -0.005 | [6] -0.023 | [7] -0.006 | [8] -0.05

UBE2L6 (UniProt O14933)
inactive: lapatinib 0.059 | pictilisib 0.062 | crizotinib -0.014 | [1] 0.088 | duvelisib 0.033 | gandotinib -0.105 | tozasertib 0.109 | doramapimod -0.013 | bafetinib -0.267 | [2] -0.024 | nilotinib 0.038 | [3] -0.139 | dasatinib -0.018 | [4] 0.036 | [5] -0.055 | quisinostat 0.024 | tipifarnib 0.043 | [6] -0.032 | [7] -0.002 | [8] -0.096

UBXN6 (UniProt Q9BZV1)
inactive: lapatinib -0.075 | pictilisib -0.048 | crizotinib 0.004 | [1] -0.014 | duvelisib -0.028 | gandotinib -0.018 | tozasertib 0.008 | doramapimod 0.017 | bafetinib 0.033 | [2] -0.023 | nilotinib -0.033 | [3] 0.042 | dasatinib 0.017 | [4] -0.065 | [5] 0.046 | quisinostat 0.028 | tipifarnib 0.016 | [6] 0.013 | [7] 0.068 | [8] -0.013

U2SURP (UniProt O15042)
inactive: lapatinib 0.021 | pictilisib -0.001 | crizotinib 0.037 | [1] 0.038 | duvelisib -0.038 | gandotinib -0.057 | tozasertib -0.005 | doramapimod -0.032 | bafetinib 0.017 | [2] -0.004 | nilotinib 0.001 | [3] -0.039 | dasatinib -0.029 | [4] 0.034 | [5] 0.046 | quisinostat 0.022 | tipifarnib 0.015 | [6] 0.021 | [7] 0.005 | [8] 0.019

UBE2F isoform 2 (UniProt Q969M7)
inactive: lapatinib -0.011 | pictilisib -0.014 | crizotinib 0.021 | [1] 0.045 | duvelisib -0.016 | gandotinib -0.001 | tozasertib -0.049 | doramapimod -0.034 | bafetinib 0.149 | [2] -0.07 | nilotinib 0.067 | [3] -0.074 | dasatinib 0.184 | [4] -0.052 | [5] -0.038 | quisinostat 0.126 | tipifarnib -0.013 | [6] -0.046 | [7] 0.013 | [8] -0.014

TUBGCP4 (UniProt Q9UGJ1)
inactive: lapatinib -0.022 | pictilisib 0.011 | crizotinib -0.012 | [1] -0.007 | duvelisib 0.03 | gandotinib -0.125 | tozasertib -0.022 | doramapimod -0.041 | bafetinib -0.076 | [2] 0.019 | nilotinib -0.028 | [3] 0.008 | dasatinib -0.046 | [4] 0.001 | [5] 0.018 | quisinostat -0.027 | tipifarnib 0.008 | [6] 0.069 | [7] 0.034 | [8] 0.01

2 successive entries out of the list so far:
UBE2B (UniProt P63146)
inactive: lapatinib -0.008 | pictilisib -0.031 | crizotinib 0.024 | [1] 0.028 | duvelisib -0.033 | gandotinib 0.009 | tozasertib -0.005 | doramapimod -0.011 | bafetinib -0.013 | [2] -0.025 | nilotinib 0.002 | [3] 0.001 | dasatinib 0.02 | [4] -0.024 | [5] -0.073 | quisinostat 0.004 | tipifarnib 0.038 | [6] 0.055 | [7] -0.014 | [8] -0.001

UBAC1 (UniProt Q9BSL1)
inactive: lapatinib 0.002 | pictilisib 0.016 | crizotinib 0.004 | [1] 0.087 | duvelisib 0.017 | gandotinib -0.011 | tozasertib 0.037 | doramapimod 0.014 | bafetinib 0.028 | [2] -0.039 | nilotinib 0.003 | [3] 0.011 | dasatinib -0.013 | [4] -0.019 | [5] 0.018 | quisinostat -0.028 | tipifarnib 0 | [6] -0.01 | [7] 0.021 | [8] -0.021

More records:

TUBB1 (UniProt Q9H4B7)
inactive: lapatinib -0.006 | pictilisib -0.007 | crizotinib -0.025 | [1] 0.093 | duvelisib -0.01 | gandotinib -0.015 | tozasertib -0.027 | doramapimod -0.046 | bafetinib 0.036 | [2] -0.06 | nilotinib 0.095 | [3] -0.013 | dasatinib -0.043 | [4] -0.004 | [5] 0.002 | quisinostat 0.079 | tipifarnib 0.03 | [6] 0.009 | [7] -0.006 | [8] -0.019

UBE2K (UniProt P61086)
inactive: lapatinib 0.019 | pictilisib -0.015 | crizotinib -0.013 | [1] -0.008 | duvelisib -0.006 | gandotinib 0.005 | tozasertib -0.006 | doramapimod -0.01 | bafetinib 0.039 | [2] -0.016 | nilotinib 0.059 | [3] 0.012 | dasatinib 0.015 | [4] 0.067 | [5] -0.029 | quisinostat 0 | tipifarnib 0.013 | [6] -0.026 | [7] 0.016 | [8] -0.006

TUBB6 (UniProt K7ES63)
inactive: lapatinib -0.1 | pictilisib 0.021 | crizotinib -0.277 | [1] -0.178 | gandotinib 0.042 | tozasertib 0.122 | doramapimod 0.2 | bafetinib -0.278 | [2] 0.253 | nilotinib -0.051 | [3] 0.112 | [4] -0.155 | quisinostat -0.267 | tipifarnib 0.08 | [6] 0.049 | [7] 0.08 | [8] -0.008

TUBB3 (UniProt Q13509)
inactive: lapatinib 0.015 | pictilisib 0.032 | crizotinib -0.027 | [1] 0.018 | duvelisib 0.026 | gandotinib 0.02 | tozasertib 0.001 | doramapimod -0.005 | bafetinib 0.021 | [2] 0.001 | nilotinib 0.029 | [3] -0.028 | dasatinib -0.027 | [4] -0.003 | [5] 0.024 | quisinostat -0.004 | tipifarnib -0.013 | [6] 0.039 | [7] 0.006 | [8] 0.006

TUBB8B (UniProt A6NNZ2)
inactive: lapatinib 0.02 | pictilisib 0.16 | [1] 0.006 | duvelisib 0.012 | gandotinib 0.04 | tozasertib 0.032 | bafetinib 0.031 | [2] 0.01 | nilotinib -0.054 | [3] 0.04 | dasatinib -0.035 | [4] 0.02 | [5] -0.024 | tipifarnib 0.097 | [7] 0.153

TXN2 (UniProt Q99757)
inactive: lapatinib 0.099 | pictilisib 0.079 | crizotinib 0.053 | [1] 0.008 | duvelisib 0 | gandotinib 0.023 | tozasertib 0.015 | doramapimod -0.011 | bafetinib 0.048 | [2] 0.098 | nilotinib -0.066 | [3] 0.033 | dasatinib 0.006 | [4] -0.022 | [5] -0.039 | quisinostat 0.057 | tipifarnib -0.068 | [6] 0.005 | [7] 0 | [8] 0

TXNDC16 (UniProt Q9P2K2)
inactive: lapatinib 0.118 | crizotinib -0.02 | [1] -0.008 | duvelisib -0.237 | gandotinib -0.059 | doramapimod 0.023 | [2] -0.122 | dasatinib 0.156 | [5] -0.096 | quisinostat -0.001 | [6] 0.064 | [7] -0.1 | [8] 0.073

TUBB2B (UniProt Q9BVA1)
inactive: lapatinib 0.119 | pictilisib -0.002 | [1] -0.013 | duvelisib -0.21 | gandotinib 0.057 | tozasertib 0.063 | bafetinib -0.008 | [2] 0.001 | nilotinib -0.063 | [3] 0.11 | dasatinib 0.046 | [4] 0.044 | [5] 0.064 | tipifarnib 0.008 | [7] -0.154
